Measured values from patent publication EP2198878A1, “Polypeptide bombesin antagonists” (University Of Miami, priority 2008, dated 2010).
Part of at least one peptide drawing is inferred or uncertain, most often the ends. Marks after values point to notes of the source that are not given here. Peptide text beside a SMILES is read from it. * marks the point of attachment. Leuψ(CH2N)ThzNH2 = CC(C)C[C@@H](CN1CSC[C@H]1C(N)=O)N*; Hydrocinnamoyl = O=C(CCc1ccccc1)*

Tested on: Hep-G2 human hepatocellular cancers
Experiment: Hep-G2 human hepatocellular cancer xenograft in nude mice
Type: in vivo
[1] = female nude mice, 10 µg/day sc. once daily

CC(C)C[C@@H](CN1CSC[C@H]1C(N)=O)NC(=O)[C@H](Cc1c[nH]cn1)NC(=O)CNC(=O)[C@@H](NC(=O)[C@H](C)NC(=O)[C@H](Cc1c[nH]c2ccccc12)NC(=O)[C@H](CCC(N)=O)NC(=O)CCc1ccccc1)C(C)C [Peptide 14, Hca-Gln-Trp-Ala-Val-Gly-His-Leu-ψ-Tac-NH2] (Hydrocinnamoyl-QWAVGH-{Leuψ(CH2N)ThzNH2})
Tumor doubling time [1]: 17.79 ± 1.36 days
Tumor volume on day 51 (mm^3) [1]: 886±334 mm^3
Tumor volume on day 106 (mm^3) [1]: 1019±387* mm^3
growth of Hep-G2 cancers (nude mice, 10 µg daily doses): significantly inhibited
